Source: paper PMC8591511, “Flexible open conformation of the AP-3 complex explains its role in cargo recruitment at the Golgi” (The Journal of Biological Chemistry, 2021)
Results are given in words; binding and its absence hold for the method and conditions named. Some binding calls cover weakened binding; strength is not graded here.

Chains of the proteins cited; added tags and fusions are not shown. Lines headed by an entry give the natural chain unless they say otherwise; changes in a name come on top.
UniProt P56962: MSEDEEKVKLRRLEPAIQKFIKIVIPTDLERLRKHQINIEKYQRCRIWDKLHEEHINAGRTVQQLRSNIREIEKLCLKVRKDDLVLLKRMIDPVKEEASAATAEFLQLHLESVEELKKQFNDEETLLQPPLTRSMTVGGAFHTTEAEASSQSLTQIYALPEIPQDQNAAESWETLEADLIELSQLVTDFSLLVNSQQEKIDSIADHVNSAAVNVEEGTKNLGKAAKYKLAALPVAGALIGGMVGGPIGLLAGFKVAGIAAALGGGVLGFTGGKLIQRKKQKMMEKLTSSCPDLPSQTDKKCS
UniProt Q08951: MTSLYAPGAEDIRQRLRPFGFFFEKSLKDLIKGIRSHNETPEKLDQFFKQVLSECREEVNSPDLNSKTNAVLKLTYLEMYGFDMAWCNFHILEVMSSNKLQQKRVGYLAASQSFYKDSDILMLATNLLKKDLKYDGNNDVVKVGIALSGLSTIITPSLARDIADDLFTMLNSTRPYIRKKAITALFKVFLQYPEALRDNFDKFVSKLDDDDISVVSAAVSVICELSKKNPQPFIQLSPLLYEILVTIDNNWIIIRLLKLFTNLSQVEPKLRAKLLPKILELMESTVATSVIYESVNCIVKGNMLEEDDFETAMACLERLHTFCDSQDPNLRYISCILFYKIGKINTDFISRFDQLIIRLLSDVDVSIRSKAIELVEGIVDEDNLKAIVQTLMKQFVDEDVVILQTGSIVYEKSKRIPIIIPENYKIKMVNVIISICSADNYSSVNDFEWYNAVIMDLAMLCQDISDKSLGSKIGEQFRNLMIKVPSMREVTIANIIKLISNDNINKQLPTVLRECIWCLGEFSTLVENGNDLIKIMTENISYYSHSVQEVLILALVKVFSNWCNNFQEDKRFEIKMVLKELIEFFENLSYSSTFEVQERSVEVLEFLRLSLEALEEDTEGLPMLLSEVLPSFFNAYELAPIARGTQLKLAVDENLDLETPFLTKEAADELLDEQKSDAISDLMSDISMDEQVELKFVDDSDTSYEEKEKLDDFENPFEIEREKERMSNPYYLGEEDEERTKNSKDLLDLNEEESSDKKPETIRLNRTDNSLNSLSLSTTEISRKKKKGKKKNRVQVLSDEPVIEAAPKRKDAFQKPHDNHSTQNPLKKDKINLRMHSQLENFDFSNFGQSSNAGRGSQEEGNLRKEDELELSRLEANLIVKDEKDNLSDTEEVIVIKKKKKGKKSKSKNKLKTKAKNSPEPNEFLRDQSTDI

What was measured:
[1] = target: T1, N-myristoylated Arf1, loaded with GTP or GTPγS by Sec7ΔC (UniProt P11076); assay: single-molecule TIRF microscopy on polymer-supported membranes; polymer-supported membranes (Golgi mixture with 1 mol% PI4P) with or without Arf1 (10 nM), Sec7ΔC (10 nM) and 400 μM GTPγS, or reconstituted Vam3; GFP-tagged AP-3 (2 nM) labelled with anti-GFP nanobody-Dy647; room temperature; monitored 45 min; both purified
T1 sequence (chain, N-myristoylated (confirmed by mass spectrometry)): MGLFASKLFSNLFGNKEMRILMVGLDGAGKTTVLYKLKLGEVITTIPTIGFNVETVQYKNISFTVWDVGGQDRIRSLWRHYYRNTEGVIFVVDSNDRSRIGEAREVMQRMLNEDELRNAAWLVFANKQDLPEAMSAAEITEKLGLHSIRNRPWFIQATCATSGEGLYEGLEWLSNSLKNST

[2] = target: T1, N-myristoylated Arf1, loaded with GTP or GTPγS by Sec7ΔC; assay: liposome flotation assay; empty liposomes (Golgi-mimicking lipid mix, with or without PI3P or PI4P) incubated with increasing Arf1, Sec7 GEF and GTP, then purified AP-1 or AP-3 complex; floated on a sucrose step gradient; band of Apl4 or Apl5 in the top fraction quantified; both purified
[3] = target: Syntaxin 17 (not stated (mammalian)) (UniProt P56962); assay: condition: proteoliposomes carrying a total of 1 μM cargo; without PIPs or Arf1; liposome flotation assay; proteoliposomes (Golgi-mimicking lipid mix) carrying a total of 1 μM cargo, incubated with purified AP-1 or AP-3 complex, floated on a sucrose step gradient; top fraction TCA-precipitated, SDS-PAGE, band of Apl4 or Apl5 quantified as percent of load; in Fig. 6E without PIPs or Arf1, in Fig. 6D also with Arf1 and PI3P or PI4P; 150 mM NaCl, 20 mM HEPES/NaOH pH 7.4, 1 mM MgCl2, 10 % glycerol, 60 min 4 °C; both purified

Row | Substance | binding [1] | binding [2] | binding [3]
1 | GFP-tagged AP-3 complex (Apl6 tagged C-terminally with mGFP) (from UniProt Q08951 1-932; P46682 1-809; P38153 1-483; P47064 1-194) | binds |  | 
2 | full-length yeast AP-3 complex (from UniProt Q08951 1-932; P46682 1-809; P38153 1-483; P47064 1-194) |  | binds weakly | no binding
